# Taken from: PubChem BioAssay AID504786 (Drosophila RNAi Screening Center, 2011)
# Aim: 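Positive regulators of HIF-driven reporter output in Drosophila cells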 (primary screen)
# System: Drosophila S2 cells with a stable HIF luciferase reporter
# Reagents: long dsRNA against Drosophila genes, about 0.2 µg dsRNA per well of a 384-well plate
# Time to read-out: three days of knock-down, then 20 h of DFO before reading
# Treatment: desferrioxamine (DFO) at 100 µM, an iron chelator that mimics hypoxia, for 20 h
# Detection: 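HIF reporter luminescence in cells given 100 µM DFO for 20 h, using the mouse ldh-a hypoxia-response element, scored as per-plate z-scores; higher means greater loss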
# Scale: z-score: higher = stronger loss of HIF reporter signal
# In all, the deposit lists about 21,000 reagents; below is an unselected part of those that have a named target and a result. 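Primary screen; positive scores mean lost reporter signal, so the sign may be inverted from the usual convention.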 A plus sign joins genes that one reagent is predicted to hit.
"z-score, replicate 1","z-score, replicate 2",gene knocked down,PubChem SID
-0.3,-0.5,CG13386,SID104182052
-0.4,0.3,Kah,SID104187679
-0.4,0.5,Kah,SID104188307
-0.1,0.8,CG14297,SID104194568
-0.5,-1.2,ap,SID104184709
2.7,-0.6,Tim17b2,SID104183249
-0.5,-0.5,E(spl)m7-HLH,SID104196488
6.3,5.2,RpS29 + snoRNA:Psi18S-1275,SID104196225
0,-0.6,Vps16B,SID104195096
-0.3,-0.2,CG6567 + CG4565,SID104195391
-0.1,0.4,wrapper,SID104184515
-0.5,-0.1,CG34353,SID104194285
-0.6,0.6,CG34353,SID104194309
-0.3,-0.3,CG34353,SID104194355
-0.3,-0.1,CG34353,SID104195629
-0.3,-0.3,CG15286,SID104181699
-0.3,-0.2,CG15200,SID104199439
-0.9,-0.8,pHCl-1,SID104189193
-0.1,0.1,pHCl-1,SID104189783
-0.3,-0.4,pHCl-1,SID104190381
-0.2,-0.2,Ir51a,SID104186048
-0.2,-0.3,Zip42C.2,SID104184796
2.8,0.5,CG12071,SID104194263
-0.2,0.2,DnaJ-1,SID104190937
0.4,0.2,Fili,SID104183699
-0.3,-0.2,Fili,SID104183924
-0.3,-0.6,Fili,SID104184237
0.2,1.6,CG2260,SID104198015
-0.3,-0.3,Nmdmc,SID104196552
0.3,-0.1,CG31200,SID104195077
-0.2,0.1,CG46491,SID104186357
-0.2,-0.5,CG46491,SID104186358
-0.3,-0.4,RyR,SID104187335
-0.2,0.2,CG4009,SID104195328
0.1,-0.1,ocm,SID104184152
-0.2,0.1,hob,SID104188218
-0.2,-0.1,CG7857,SID104190717
-0.2,0.2,CG12289,SID104189666
0.3,0.7,CG5746,SID104195660
0.4,0,Mal-A3,SID104187254
-0.2,-0.3,CG4360,SID104195358
-0.2,-0.2,CG5510,SID104195615
-0.3,-0.8,CG10650,SID104181877
-0.4,-0.6,CG7530,SID104196047
-0.4,-0.6,ClpP,SID104182598
1.8,2.4,mRpL9,SID104195470
0,-0.1,CG30389,SID104183869
1.1,1.3,CG30389,SID104184244
3.1,3.8,l(1)10Bb,SID104200138
-0.3,-0.4,CG15905,SID104186383
-0.3,-0.3,CG4069,SID104190188
-0.2,1.3,CG14331,SID104194602
-0.4,-0.9,CG8321,SID104186940
-0.3,-0.5,CG17290,SID104186454
-0.3,-0.5,Cpr49Ac,SID104186991
-0.1,-0.2,Nckx30C,SID104182478
-0.1,0.1,Nckx30C,SID104182479
0,0.3,Nckx30C,SID104182480
0.9,2.4,Nckx30C,SID104182481
-0.2,-1,CG4955,SID104199719
0.2,0,CG5199,SID104191562
0.1,-0.2,pen-2,SID104185514
-0.4,-0.3,ics,SID104181670
-0.2,0.8,CG15128,SID104186342
-0.1,0.1,CG17359,SID104190057
1.2,2.8,Acn,SID104181854
1.6,2.1,e(y)3,SID104199242
-0.3,-0.4,Tsf3,SID104186641
0,-0.2,CG8563,SID104190788
-0.4,-0.6,Lztr1,SID104197968
-0.4,-0.9,Lztr1,SID104198439
0,-0.3,ScsbetaG,SID104191086
-0.2,0.1,CG5382,SID104195578
-0.3,-0.3,CG11456,SID104191457
-0.1,-0.1,CG15258,SID104182270
2.4,3.1,MBD-R2,SID104193972
-0.1,0.2,CG8065,SID104190751
-0.1,0,Vps35,SID104184311
-0.1,0.1,CG2898,SID104198030
-0.3,0.7,Gas41,SID104182948
-0.2,-0.3,Catsup,SID104183080
-0.2,-0.2,Cp18,SID104190912
-0.2,-1,Dscam3,SID104194317
-0.5,0,Dscam3,SID104196168

Limited to “z-score, replicate 2”, for 11 of the entries above:
CG6567 + CG4565 [SID104195391]: -0.2
wrapper [SID104184515]: 0.4
CG34353 [SID104194285]: -0.1
CG34353 [SID104194309]: 0.6
CG34353 [SID104194355]: -0.3
CG34353 [SID104195629]: -0.1
CG15286 [SID104181699]: -0.3
CG15200 [SID104199439]: -0.2
pHCl-1 [SID104189193]: -0.8
pHCl-1 [SID104189783]: 0.1
pHCl-1 [SID104190381]: -0.4
